64 compounds from PubChem BioAssay AID493014 (National Center for Advancing Translational Sciences (NCATS), 2011) can be followed below.

A short description of this experiment: qHTS Assay to Find Inhibitors of Chronic Active B-Cell Receptor Signaling. The note with it: ABC-DLBCL IkBa-CBG/CBR reporter, luminescence ratio (green luciferase fused to IkBa over red control in TMD8 lymphoma cells), 4 h. The essentials:
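Concentration-response series (up to 46 uM) were applied to TMD8 dual-reporter cells for 4 h at 37C with doxycycline. Green/red ratio, after filter-overlap correction, defined %Activity; red signal alone was normalised to basal cells and zero luminescence.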
On the technique in general: Quantitative high-throughput screening tests each substance at several concentrations.

[1] abbreviates: measured here: CBR red luminescence, cell number.
Where [2] appears, read: measured here: IkBa-CBG green luminescence.

The other results are listed elsewhere or left out. Shown are side measurements of this screen, not its main read-out; they come without a call. The list favours compounds with an active or inconclusive main result. Potencies come from curve fits of mixed quality, noted in brackets.

What is called AC50 is the concentration giving half of the maximal activity seen.

Turning to `CC(C)Cc1ccc(CN2CCCC(NC(=O)c3ccnn3C)C2)cc1` (stereo unspecified), the AC50 under setting [1] was 12.6 µM [falling, partial curve].
Still for that read-out and setting: next, `CC1(C)CC(=O)C(=Cc2cn(-c3ccccc3)nc2-c2ccc(Cl)cc2)C(=O)C1`: 0.708 µM [rising, full curve].
On to `COC(=O)CSc1ccc2c(N)c(C(=O)OC)sc2c1`, for which the AC50 is, setting by setting: under setting [1], 10.3 µM [falling, partial curve, poor fit]; under setting [2], 10.3 µM [rising, partial curve, poor fit].
Regarding `CC(C)c1ccc(-c2c(C#N)c(N)nc3c2CCCCC3)cc1`, the AC50 under setting [1] was 23.1 µM [falling, single point].
Same read-out and setting: next, `CC(OC(=O)Cc1n[nH]c(=O)c2ccccc12)C(=O)Nc1ccc(Cl)cn1` (stereo unspecified): 11.2 µM [falling, partial curve, poor fit].
The same measure, in the same setting: the figure for `Cc1cc(C)c2nc(NC(=O)c3cc(C)on3)sc2c1` is 9.2 µM [falling, partial curve].
As for `CN(/N=C/c1cccc(Br)c1)C1=NS(=O)(=O)c2ccccc21`, under setting [1], the AC50 was 11.2 µM [rising, partial curve, poor fit].
The same measure, in the same setting: the figure for `Cc1cccc(-n2cnc(C(=O)N/N=C\c3ccc(Br)cc3)c2)n1` is 29.1 µM [falling, single point]; for `O=C(Nc1ccccc1Br)c1ccc(OC(=S)N2CCOCC2)cc1` it is 1.12 µM [falling, partial curve, poor fit].
On the same count and under the same terms, the figure for `Cc1ccc(/C=C/C(=O)Nc2ncc(C)s2)o1` is 14.6 µM [falling, partial curve]; for `Clc1nc(CN2CCCCC2)nc2sc3c(c12)CCC3` it is 28.2 µM [falling, single point]; for `S=C(NCCC1=CCCCC1)Nc1ccccc1` it is 7.08 µM [rising, full curve].
The same measure, in the same setting: the figure for `O=C(c1ccc(Cl)c(S(=O)(=O)N2CCc3ccccc32)c1)N1CCN(c2ccccc2O)CC1` is 29.1 µM [falling, single point].
Consider `CC(C)c1ccc(N2C(=O)N(Cc3ccccc3Cl)c3ccccc3S2(=O)=O)cc1`, for which the AC50 under setting [1] is 15.8 µM [falling, partial curve, poor fit].
`COc1ccc(OC)c(NC(=O)CNC(c2ccccc2)c2ccccc2)c1`: the AC50 under setting [1] was 0.1 µM [falling, full curve, poor fit].
Regarding `COc1ccc(C2=NOC(COc3ccc4c(C)cc(=O)oc4c3)C2)c(OC)c1` (stereo unspecified), the AC50 under setting [1] was 1.41 µM [rising, full curve, poor fit] and the AC50 under setting [2] was 11.2 µM [falling, partial curve, poor fit].
Turning to `COc1ccccc1C(=O)NC(=O)COC(=O)C1CC1`, under setting [1], the AC50 was 32.6 µM [falling, single point].
Still for that read-out and setting: the figure for `CC(C)[C@H](CO)Nc1nc(NCc2ccc(S(N)(=O)=O)cc2)c2ncn(C(C)C)c2n1` is 12.6 µM [falling, partial curve, poor fit]; for `Cc1[nH]c2ccc(F)cc2c1CCN(Cc1ccncc1)C(=S)Nc1ccc(F)cc1` it is 17.8 µM [falling, single point]; for `COc1ccc(-c2csc(N3CCSCC3)n2)cc1` it is 35.5 µM [rising, single point].
Take `O=[N+]([O-])c1ccc(COc2cccc(CNc3ccc(Br)cc3)c2)cc1`: the AC50 under setting [1] is 16.4 µM [falling, single point].
On the same count and under the same terms, next, `CC(C)OC(=O)CSc1nc2ccccc2s1`: 11.6 µM [rising, partial curve, poor fit]; `CC(=O)Nc1ccc(S(=O)(=O)N(C)S(=O)(=O)c2ccc(F)cc2)cc1`: 4.47 µM [rising, full curve, poor fit]; `CN1CCN(C2=C(Cl)C(=O)N(c3ccc(Cl)c(Cl)c3)C2=O)CC1`: 10 µM [falling, partial curve, poor fit].
On to `COC(=O)Cc1c(C)nc2nc(-c3ccc(C)cc3)[nH]n2c1=O`, for which the AC50 under setting [1] is 2.31 µM [falling, full curve].
For the compound `O=C(Nc1ccccc1C(=O)OCC(=O)N1CCc2ccccc2C1)c1ccco1`, the AC50 under setting [1] was 0.794 µM [falling, full curve].
For the compound `COc1ccc(NC(=S)N(CCc2c(C)[nH]c3ccc(C)cc23)Cc2cccs2)cc1`, the AC50 under setting [2] was 4.11 µM [falling, partial curve, poor fit].
For `O=C(O)CSC1CC(=O)N(c2cccc(Cl)c2)C1=O` (stereo unspecified), the half-maximal activity concentration (AC50) under setting [1] is 35.5 µM [falling, single point].
On the same count and under the same terms, the figure for `COc1ccc(-c2cc(C(=O)N(C)CC(=O)Nc3cccc(F)c3)c3ccccc3n2)cc1` is 29.1 µM [falling, single point]; for `N#C/C(=C\c1ccc[nH]1)S(=O)(=O)c1ccccc1` it is 29.1 µM [rising, partial curve, poor fit].
As for `O=C(Nc1nnc(-c2ccco2)s1)C1CCCCC1`, the AC50 under setting [1] is 2 µM [falling, full curve, poor fit].
Same read-out and setting: next, `N/C(=N\OC(=O)C1CCCCC1)c1ccc(Cl)cc1`: 11.2 µM [rising, single point]; `CCOC(=O)C1CCCN(Cc2ccc(OCc3ccccc3)cc2)C1` (stereo unspecified): 35.5 µM [falling, single point]; `O=C(NN/C(=N/S(=O)(=O)c1ccc(Cl)cc1)c1ccccc1)c1cccc(Cl)c1`: 17.8 µM [falling, single point].
On the same count and under the same terms, next, `CN(C)S(=O)(=O)c1cccc(C(=O)NCc2cccs2)c1`: 4.61 µM [rising, partial curve, poor fit]; `COc1cc(OC)c(OC)cc1CNC(=O)CCN1C(=O)c2cccc([N+](=O)[O-])c2C1=O`: 3.98 µM [falling, full curve, poor fit].
On to `CCN1CCSc2ccc(C(=O)NCc3ccccc3Br)cc21`, for which, under setting [1], the AC50 is 28.2 µM [falling, partial curve, poor fit].
`O=c1ccn(CCOc2ccc(Cl)cc2)c(=O)[nH]1`: the AC50 under setting [1] is 5.62 µM [falling, full curve, poor fit].
On the same count and under the same terms, next, `O=C(Nc1ccc(SC(F)F)cc1)c1ccccc1F`: 35.5 µM [falling, single point].
Regarding `Cc1cccc(NC(=O)C2=C(O)c3ccccc3N(C)S2(=O)=O)c1`, the AC50 under setting [1] was 14.6 µM [falling, partial curve].
Same read-out and setting: the figure for `CCOC(=O)c1cc2c(ccn2C)n1Cc1ccc(C#N)cc1` is 5.62 µM [rising, single point].
In the case of `COc1nc(NCc2ccc(Cl)cc2)nc(OC)n1`, the half-maximal activity concentration (AC50) under setting [1] was 14.1 µM [rising, single point].
On the same count and under the same terms, next, `COc1ccc(NC(=O)Cn2c(-c3ccccc3)cn(-c3ccc(C)cc3)c2=O)cc1`: 14.6 µM [rising, partial curve].
For the compound `COCCN(CCOC)C(=O)Nc1ccc(Cl)cc1`, the AC50 under setting [1] was 2.24 µM [rising, full curve, poor fit].
As to `C#CCSc1nnc(-c2ccc(C)cc2)o1`, the half-maximal activity concentration (AC50) under setting [1] was 29.1 µM [falling, single point].
The same measure, in the same setting: the figure for `Cc1cc(C(=O)COC(=O)[C@H](C)NC(=O)c2ccco2)c(C)n1Cc1ccco1` is 35.5 µM [rising, single point]; for `COc1cccc(OCC(O)CNC(=O)c2oc3c(C)c(C)ccc3c2C)c1` (stereo unspecified) it is 14.1 µM [falling, single point].
With `COc1cccc(/C=N/N2CCN(C3c4ccccc4-c4ccccc43)CC2)c1O`, under setting [1], the half-maximal activity concentration (AC50) is 35.5 µM [falling, single point].
Regarding `Cc1cc(C)cc(N(CC(=O)NC(C)(C)C)C(=O)CNC(=O)c2cccs2)c1`, the half-maximal activity concentration (AC50) under setting [1] is 3.55 µM [falling, single point].
Still for that read-out and setting: next, `CCn1c(=O)c(C(=O)Nc2nc3ccccc3[nH]2)c(O)c2ccccc21`: 5.62 µM [falling, partial curve, poor fit]; `CCc1ccc(NCc2ccc(OC)c(Cn3ccnc3)c2)cc1`: 35.5 µM [rising, single point].
As for `Cc1cc(C)n(CCC(=O)N/N=C/c2c(O)ccc3ccccc23)n1`, under setting [1], the AC50 is 3.98 µM [falling, partial curve].
As to `COc1cccc(NC(=O)[C@H](Cc2c[nH]c3ccccc23)NC(=O)[C@@H]2Cc3ccccc3CN2)c1`, the AC50 under setting [1] is 35.5 µM [falling, single point].
Consider `COC(=O)c1ccc(-n2ccnc2)cc1`, for which the AC50 under setting [1] was 31.6 µM [falling, partial curve, poor fit].
Still for that read-out and setting: next, `C=CCN1C2CCCC1CC(NC(=S)Nc1ccc(Cl)cc1)C2` (stereo unspecified): 11.2 µM [falling, partial curve]; `CC(=O)NC1(c2nnnn2CCOC(=O)Nc2ccc(Cl)cc2)CCCC1`: 4.47 µM [rising, partial curve, poor fit].
Same read-out and setting: the figure for `COc1ccc(C(=O)c2c3ccc([N+](=O)[O-])cc3[n+]([O-])n2CCCN)cc1` is 16.4 µM [falling, single point]; for `CCOC(=O)N1CCN(Cc2nc3cc(NC(=O)C(C)C)ccc3n2CC)CC1` it is 6.31 µM [rising, single point]; for `Cc1ccc(NC(=S)Nc2ccccn2)c(C)c1` it is 8.91 µM [rising, partial curve, poor fit].
On the same count and under the same terms, the figure for `CCOCCCNC(=O)c1ccc(N(C)S(=O)(=O)c2ccc(OC)cc2)cc1` is 23.1 µM [rising, single point]; for `CC1CCC2(CC1)NC(=O)N(NC(=O)c1ccc(OC(C)C)cc1)C2=O` (stereo unspecified) it is 3.26 µM [falling, partial curve, poor fit]; for `Cc1ccc(C)c(/C=N/Nc2nc3ccccc3c(=O)n2O)c1` it is 14.1 µM [rising, partial curve, poor fit].
`CCc1nc(N[C@@H](CC(C)C)C(=O)O)c2oc3ccccc3c2n1`: the concentration at half-maximal activity (AC50) under setting [1] is 11.2 µM [falling, partial curve, poor fit].
The same measure, in the same setting: next, `C#CC(CC)(CC)NC(=O)c1ccc(Br)s1`: 22.4 µM [rising, single point].
